Construct, isoform or probe ends are uncertain for at least one entry. For some of these results: Negatives hold for the conditions tested. For some of these results: At least one verdict rests on a figure or table, not on a statement of the authors. For some of these results: The comparison behind a weaker result is the experiment's own reference, which may not be listed here. For some of these results: Tags and fusion partners may be left off the protein sequences shown.
Legend:
Experiment in all cases: EMSA
Pol II-IDR = details: Binding buffer 250 mM HEPES, 500 mM KCl, 20 mM MgSO4, on ice 30 min, G4 oligos annealed in 50 mM Tris-HCl, 50 mM KCl, 40% PEG200, recombinant protein, protein details: EGFP, His6, label: FAM
MAZ ZF234M (human) = MAZ ZF234M (human) (UniProt P56270); details: Binding buffer 250 mM HEPES, 500 mM KCl, 20 mM MgSO4, on ice 30 min, G4 oligos annealed in 50 mM Tris-HCl, 50 mM KCl, 40% PEG200, recombinant protein, protein details: mCherry, His6, label: FAM, folded or branched DNA
MAZ ZF4M (human) = MAZ ZF4M (human) (UniProt P56270); details: Binding buffer 250 mM HEPES, 500 mM KCl, 20 mM MgSO4, on ice 30 min, G4 oligos annealed in 50 mM Tris-HCl, 50 mM KCl, 40% PEG200, recombinant protein, protein details: mCherry, His6, label: FAM, folded or branched DNA
MAZ ZF3M (human) = MAZ ZF3M (human) (UniProt P56270); details: Binding buffer 250 mM HEPES, 500 mM KCl, 20 mM MgSO4, on ice 30 min, G4 oligos annealed in 50 mM Tris-HCl, 50 mM KCl, 40% PEG200, recombinant protein, protein details: mCherry, His6, label: FAM, folded or branched DNA
MAZ ZF2M (human) = MAZ ZF2M (human) (UniProt P56270); details: Binding buffer 250 mM HEPES, 500 mM KCl, 20 mM MgSO4, on ice 30 min, G4 oligos annealed in 50 mM Tris-HCl, 50 mM KCl, 40% PEG200, recombinant protein, protein details: mCherry, His6, label: FAM, folded or branched DNA
MAZ WT (human) = molecular target: T1, MAZ WT (human) (UniProt P56270); details: Binding buffer 250 mM HEPES, 500 mM KCl, 20 mM MgSO4, on ice 30 min, G4 oligos annealed in 50 mM Tris-HCl, 50 mM KCl, 40% PEG200, recombinant protein, protein details: His6 (also mCherry-His6 fusion), label: FAM, folded or branched DNA
T1 sequence (looked up, limits assumed): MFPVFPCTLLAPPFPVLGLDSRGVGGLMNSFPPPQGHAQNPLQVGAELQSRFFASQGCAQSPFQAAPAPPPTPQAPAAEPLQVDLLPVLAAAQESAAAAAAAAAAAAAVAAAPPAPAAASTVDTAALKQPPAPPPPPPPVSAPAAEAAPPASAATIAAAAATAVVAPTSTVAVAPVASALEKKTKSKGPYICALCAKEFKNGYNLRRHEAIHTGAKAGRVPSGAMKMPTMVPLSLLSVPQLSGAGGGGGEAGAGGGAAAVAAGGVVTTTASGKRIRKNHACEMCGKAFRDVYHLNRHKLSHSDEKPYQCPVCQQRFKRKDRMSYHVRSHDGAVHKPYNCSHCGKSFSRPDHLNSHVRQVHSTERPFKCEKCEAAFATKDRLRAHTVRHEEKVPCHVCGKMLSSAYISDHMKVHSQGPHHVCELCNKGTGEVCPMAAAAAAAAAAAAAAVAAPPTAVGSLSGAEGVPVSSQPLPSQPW

Sequence	binding result (MAZ ZF234M (human))	binding result (MAZ ZF4M (human))	binding result (MAZ ZF3M (human))	binding result (MAZ ZF2M (human))	further results
ATGAGAGCGAGAGAGAGACGAGAGCGAGCGCAGAGAGAGAGAGCGCGAGCG [CCND1-G4 Mut1]					binding result (Pol II-IDR; single-stranded DNA): no binding
GGAGGAGGAGGAGGAGGAGGAGGA [MYB-G4]	no binding	binds	binds	no binding	
GGGCGCGGGAGGAATTGGGCGGG [BCL2-G4]	no binding	binds	binds	no binding	
TGAGGGTGGGTAGGGTGGGTAA [MYC-G4 (Table S2)]	no binding	binds	binds	no binding	
ATGGGAGCGGGAGGGGGGCGGGGGCGGGCGCAGGGGGAGGGGGCGCGGGCG [CCND1-G4 WT]					binding result (MAZ ZF234M (human); virtually failed): no binding; binding result (MAZ ZF4M (human); largely retained): binds; binding result (MAZ ZF3M (human); largely retained): binds; binding result (MAZ ZF2M (human); virtually failed): no binding; binding result (MAZ WT (human); PDS): binds more weakly; binding result (MAZ WT (human); TMPyP4): binds more weakly; binding result (Pol II-IDR; folded or branched DNA): binds
GGGGCGCGGGGCGCGGGGCATGGGG [MDM2-G4]	no binding	binds	binds	no binding	
TAGGGTTAGGGTTAGGGTTAGGGTTAG [TEL-G4]	no binding	binds	binds	no binding	

Source: PMC10844655
